PubChem BioAssay AID1508588 – Peter MacCallum Cancer Centre, 2020
The deposit covers about 18,000 reagents; below is an unselected part. Over the whole deposit, 790 (4.4%) were called active. 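Calls rest on a combination of fold-change classes in drug and vehicle arms, not all shown here.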 Unmarked entries are inactive.

Test: 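Which gene losses make BRAF-mutant melanoma cells more responsive to vemurafenib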 (primary screen)
Cells: human WM266.4 melanoma cells (BRAF V600 mutant)
Reagent: siRNA pool against human genes, 40 nM
Duration: 96 h from transfection to read-out
Challenge: vemurafenib 300 nM (about IC25), added 48 h after transfection, for 48 h; comparison arm got DMSO vehicle only
Measured: 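Cell gain (DAPI nuclei at end minus before drug, mean of two replicates) and medium lactate by absorbance per cell, both as ratio to non-targeting siRNA, also grouped into fold-change classes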
Reading the numbers: cell gain with vemurafenib: higher = more cell gain than with non-targeting siRNA; lactate per cell with vemurafenib: higher = more lactate made per cell
Hit rule: 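Enhancement is called by pairing each knock-down's vehicle-arm and drug-arm fold-change classes for viability or glycolysis; which class combinations qualify is not given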
Calls: active = enhances vemurafenib effect; inactive = no enhancement seen

| Gene | cell gain with vemurafenib | lactate per cell with vemurafenib |
| --- | --- | --- |
| AFF3 | 1.03 | 0.63 |
| ZDHHC21 | 0.81 | 0.48 |
| GAD1 | 0.83 | 1.07 |
| GPT2 | 0.67 | 0.75 |
| KRT27 | 0.86 | 0.82 |
| DDB1 | 0.34 | 1.27 |
| NDC80 | -0.07 | 2.12 |
| SLC35F1 | 0.75 | 1.23 |
| CELSR3 | 0.07 | 2.17 |
| PGAM1 | 0.75 | 0.58 |
| ATG13 | 0.28 | 2.58 |
| FKBP1A | 0.41 | 0.3 |
| WTAP | 0.29 | 0.5 |
| ZNF646 | 0.28 | 2.34 |
| MITF | 0.26 | 1.84 |
| DDIT4 | 0.65 | 0.83 |
| RAB11FIP5 | 0.45 | 1.63 |
| RETN | 0.12 | 1.56 |
| ATF6 | 0.68 (active) | 0.15 |
| PRKCB | 0.54 | 0.76 |
| GIMAP2 | 0.61 | 0.82 |
| OSBPL1A | 1.35 | 0.6 |
| LCE2D | 0.63 | 0.52 |
| NOC2L | 0.87 | 1.07 |
| PPIH | 0.65 | 0.78 |
| CEBPD | 0.22 | 1.62 |
| NRBP1 | 0.42 | 1.46 |
| UGT2A1 | 1.04 | 1.19 |
| SMG1 | 0.06 | 1.36 |
| BRD3 | 0.75 | 1.45 |
| CCNT1 | 0.9 | 0.8 |
| WFDC10B | 0.74 | 1.12 |
| KRTAP19-7 | 0.39 | 1.1 |
| HAUS2 | 0.04 (active) | 0.56 |

Taken from above:
GIMAP2, cell gain with vemurafenib = 0.61
AFF3, lactate per cell with vemurafenib = 0.63
For “cell gain with vemurafenib”, SLC35F1 reads 0.75
